Assay [1] addresses sortilin-related receptor 1 (SORL1) (human (endogenous in KRCH31)) (UniProt Q92673). The assay can be described thus: co-IP; KRCH31 protein lysate (500 uL, 1 ug/uL) on antibody-loaded Protein G magnetic beads, 1 h at room temperature, washed with PBST, Western blot of the IP products.
Assay [2] shares this target. The assay can be described thus: proximity ligation; Duolink In Situ Red on fixed cells (4% paraformaldehyde); mouse anti-SORL1 with rabbit anti-EGFR or rabbit anti-FGFR4; confocal microscopy.

Chains of the proteins cited; added tags and fusions are not shown. Residues count along the entry.
UniProt Q92673, residues 82-2214: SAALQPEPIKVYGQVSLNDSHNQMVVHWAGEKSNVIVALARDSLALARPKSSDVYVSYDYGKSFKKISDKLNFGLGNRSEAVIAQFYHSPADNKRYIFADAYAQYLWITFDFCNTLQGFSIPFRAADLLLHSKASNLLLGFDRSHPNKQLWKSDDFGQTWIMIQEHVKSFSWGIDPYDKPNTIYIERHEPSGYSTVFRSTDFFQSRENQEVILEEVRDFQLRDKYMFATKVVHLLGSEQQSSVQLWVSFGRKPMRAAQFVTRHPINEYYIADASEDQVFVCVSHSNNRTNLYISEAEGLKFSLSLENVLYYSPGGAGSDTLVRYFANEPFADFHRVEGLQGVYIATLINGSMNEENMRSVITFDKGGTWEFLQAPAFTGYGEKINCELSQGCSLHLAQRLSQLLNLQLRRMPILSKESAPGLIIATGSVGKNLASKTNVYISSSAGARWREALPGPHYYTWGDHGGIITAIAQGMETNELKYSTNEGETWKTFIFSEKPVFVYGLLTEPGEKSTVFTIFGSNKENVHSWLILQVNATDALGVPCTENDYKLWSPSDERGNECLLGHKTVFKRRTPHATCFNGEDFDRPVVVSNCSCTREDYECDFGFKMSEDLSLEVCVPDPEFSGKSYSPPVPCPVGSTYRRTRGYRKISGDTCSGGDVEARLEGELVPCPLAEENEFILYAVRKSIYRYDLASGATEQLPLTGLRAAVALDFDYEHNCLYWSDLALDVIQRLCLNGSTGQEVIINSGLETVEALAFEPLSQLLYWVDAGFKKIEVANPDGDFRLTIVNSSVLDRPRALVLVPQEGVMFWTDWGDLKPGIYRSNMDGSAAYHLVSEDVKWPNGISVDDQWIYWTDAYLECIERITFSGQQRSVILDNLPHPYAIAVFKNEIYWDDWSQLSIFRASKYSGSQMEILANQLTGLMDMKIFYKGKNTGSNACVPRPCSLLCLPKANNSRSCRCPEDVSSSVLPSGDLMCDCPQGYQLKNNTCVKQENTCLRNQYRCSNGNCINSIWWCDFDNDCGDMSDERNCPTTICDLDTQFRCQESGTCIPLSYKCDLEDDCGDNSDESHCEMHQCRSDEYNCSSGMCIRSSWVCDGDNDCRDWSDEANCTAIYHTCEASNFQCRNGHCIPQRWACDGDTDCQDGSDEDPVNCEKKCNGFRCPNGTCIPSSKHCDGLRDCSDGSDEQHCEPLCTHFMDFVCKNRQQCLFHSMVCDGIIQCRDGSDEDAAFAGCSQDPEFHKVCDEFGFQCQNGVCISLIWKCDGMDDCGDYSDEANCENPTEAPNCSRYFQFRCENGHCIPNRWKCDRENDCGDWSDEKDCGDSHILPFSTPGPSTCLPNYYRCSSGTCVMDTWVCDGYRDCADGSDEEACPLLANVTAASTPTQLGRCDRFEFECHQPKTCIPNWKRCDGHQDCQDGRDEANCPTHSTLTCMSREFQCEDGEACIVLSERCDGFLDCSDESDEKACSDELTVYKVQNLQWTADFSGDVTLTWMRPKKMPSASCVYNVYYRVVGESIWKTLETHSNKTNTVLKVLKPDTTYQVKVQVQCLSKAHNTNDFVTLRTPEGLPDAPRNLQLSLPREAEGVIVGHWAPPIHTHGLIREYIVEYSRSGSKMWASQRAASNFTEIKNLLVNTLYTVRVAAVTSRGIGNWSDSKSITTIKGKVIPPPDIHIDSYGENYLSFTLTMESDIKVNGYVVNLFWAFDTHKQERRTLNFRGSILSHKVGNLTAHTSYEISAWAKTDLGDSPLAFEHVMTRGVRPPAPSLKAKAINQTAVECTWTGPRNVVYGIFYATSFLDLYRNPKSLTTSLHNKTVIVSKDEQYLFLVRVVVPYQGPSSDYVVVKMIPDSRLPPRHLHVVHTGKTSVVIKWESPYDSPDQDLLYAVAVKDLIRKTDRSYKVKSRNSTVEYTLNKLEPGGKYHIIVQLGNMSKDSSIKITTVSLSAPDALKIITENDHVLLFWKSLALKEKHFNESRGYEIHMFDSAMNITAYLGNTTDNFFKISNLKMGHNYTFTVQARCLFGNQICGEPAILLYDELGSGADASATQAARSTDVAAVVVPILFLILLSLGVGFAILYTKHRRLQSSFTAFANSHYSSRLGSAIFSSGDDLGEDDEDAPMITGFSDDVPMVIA
UniProt P22455, residues 22-802: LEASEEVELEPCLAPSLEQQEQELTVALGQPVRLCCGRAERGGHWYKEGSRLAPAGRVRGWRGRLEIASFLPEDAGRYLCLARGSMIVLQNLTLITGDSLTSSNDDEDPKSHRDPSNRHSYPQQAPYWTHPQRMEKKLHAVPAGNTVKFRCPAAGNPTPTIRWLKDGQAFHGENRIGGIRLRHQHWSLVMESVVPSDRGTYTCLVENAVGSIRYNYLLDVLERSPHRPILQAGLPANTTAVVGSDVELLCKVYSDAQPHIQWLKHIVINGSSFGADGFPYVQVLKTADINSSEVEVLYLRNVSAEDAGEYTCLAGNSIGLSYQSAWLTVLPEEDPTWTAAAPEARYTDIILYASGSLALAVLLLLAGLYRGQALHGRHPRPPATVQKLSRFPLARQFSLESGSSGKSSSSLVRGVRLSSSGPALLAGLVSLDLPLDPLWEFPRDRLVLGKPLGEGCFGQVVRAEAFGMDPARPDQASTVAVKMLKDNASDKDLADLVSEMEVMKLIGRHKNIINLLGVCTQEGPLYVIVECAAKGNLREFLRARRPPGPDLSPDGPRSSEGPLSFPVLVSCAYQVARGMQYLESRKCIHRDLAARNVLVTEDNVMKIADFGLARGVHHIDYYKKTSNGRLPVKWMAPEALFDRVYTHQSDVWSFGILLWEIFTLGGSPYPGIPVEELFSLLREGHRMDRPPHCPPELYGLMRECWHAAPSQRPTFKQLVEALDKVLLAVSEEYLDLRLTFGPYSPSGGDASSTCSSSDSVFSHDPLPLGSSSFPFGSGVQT

Results are given in words; binding and its absence hold for the method and conditions named. In cells and extracts the contact can be indirect. Some binding calls cover weakened binding; strength is not graded here.

“fibroblast growth factor receptor 4 (FGFR4) (from UniProt P22455 22-802)”: the binding result in assay [1] and in assay [2] was “binds” throughout.
For the substance “epidermal growth factor receptor (EGFR) (from UniProt P00533 25-1210)”, the binding entry in assay [1] and in assay [2] was “binds” throughout.
